Assay results taken from the supplement of paper PMC10849652.
This is one part of the list.

By UniProt entry, the sequences of proteins in these tests, tags left out. Where a name states a change or a piece, a line headed by the entry shows the natural chain unless it says otherwise.
UniProt P62312: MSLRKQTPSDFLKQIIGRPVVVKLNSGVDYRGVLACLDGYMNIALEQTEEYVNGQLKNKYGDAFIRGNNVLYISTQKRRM
UniProt O95214: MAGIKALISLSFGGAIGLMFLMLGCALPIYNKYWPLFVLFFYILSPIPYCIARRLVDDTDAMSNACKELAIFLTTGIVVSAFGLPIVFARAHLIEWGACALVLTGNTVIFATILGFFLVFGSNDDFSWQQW
UniProt Q9P244: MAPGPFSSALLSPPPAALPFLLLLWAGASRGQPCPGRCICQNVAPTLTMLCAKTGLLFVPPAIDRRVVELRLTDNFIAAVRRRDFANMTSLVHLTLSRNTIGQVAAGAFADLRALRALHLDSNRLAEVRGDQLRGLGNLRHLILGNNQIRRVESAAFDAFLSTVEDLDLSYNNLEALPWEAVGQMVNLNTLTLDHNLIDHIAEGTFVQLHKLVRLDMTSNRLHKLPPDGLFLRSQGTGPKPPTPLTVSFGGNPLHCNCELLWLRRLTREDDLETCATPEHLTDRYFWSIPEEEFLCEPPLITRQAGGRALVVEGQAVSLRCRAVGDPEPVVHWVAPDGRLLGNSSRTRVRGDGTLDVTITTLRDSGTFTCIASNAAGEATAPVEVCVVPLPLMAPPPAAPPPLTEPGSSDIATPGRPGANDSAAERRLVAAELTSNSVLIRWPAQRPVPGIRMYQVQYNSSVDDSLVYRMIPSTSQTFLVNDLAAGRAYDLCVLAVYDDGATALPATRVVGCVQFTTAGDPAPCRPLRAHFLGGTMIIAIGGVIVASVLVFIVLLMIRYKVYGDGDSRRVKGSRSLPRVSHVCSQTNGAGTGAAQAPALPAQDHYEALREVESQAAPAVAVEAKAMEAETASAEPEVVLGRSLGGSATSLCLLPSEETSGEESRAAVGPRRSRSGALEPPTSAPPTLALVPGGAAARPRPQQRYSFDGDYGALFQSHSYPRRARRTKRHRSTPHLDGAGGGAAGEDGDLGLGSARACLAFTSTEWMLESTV
UniProt Q9Y2L9: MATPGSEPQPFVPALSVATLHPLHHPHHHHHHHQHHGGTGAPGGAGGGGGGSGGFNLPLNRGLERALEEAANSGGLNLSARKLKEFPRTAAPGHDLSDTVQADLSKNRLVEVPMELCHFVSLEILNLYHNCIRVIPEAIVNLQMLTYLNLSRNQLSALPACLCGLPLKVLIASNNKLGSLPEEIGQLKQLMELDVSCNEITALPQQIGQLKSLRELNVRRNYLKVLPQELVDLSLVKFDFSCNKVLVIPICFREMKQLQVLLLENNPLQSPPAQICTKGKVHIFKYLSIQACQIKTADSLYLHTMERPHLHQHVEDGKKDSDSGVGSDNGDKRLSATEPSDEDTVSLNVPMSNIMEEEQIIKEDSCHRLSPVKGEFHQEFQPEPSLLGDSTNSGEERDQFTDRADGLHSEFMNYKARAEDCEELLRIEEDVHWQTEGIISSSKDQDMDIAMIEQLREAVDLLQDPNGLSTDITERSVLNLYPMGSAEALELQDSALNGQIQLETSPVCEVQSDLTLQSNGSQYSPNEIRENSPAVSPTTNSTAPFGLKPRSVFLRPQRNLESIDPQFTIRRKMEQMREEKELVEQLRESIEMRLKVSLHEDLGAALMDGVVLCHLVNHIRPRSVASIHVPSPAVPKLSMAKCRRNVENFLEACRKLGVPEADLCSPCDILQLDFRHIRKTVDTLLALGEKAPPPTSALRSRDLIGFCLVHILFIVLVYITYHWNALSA
UniProt Q3MHD2: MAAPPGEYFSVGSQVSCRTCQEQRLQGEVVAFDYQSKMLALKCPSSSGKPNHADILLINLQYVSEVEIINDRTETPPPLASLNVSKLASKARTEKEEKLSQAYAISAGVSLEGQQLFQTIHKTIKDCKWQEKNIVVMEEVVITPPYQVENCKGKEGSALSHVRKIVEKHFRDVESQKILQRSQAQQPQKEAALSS
UniProt Q86X29: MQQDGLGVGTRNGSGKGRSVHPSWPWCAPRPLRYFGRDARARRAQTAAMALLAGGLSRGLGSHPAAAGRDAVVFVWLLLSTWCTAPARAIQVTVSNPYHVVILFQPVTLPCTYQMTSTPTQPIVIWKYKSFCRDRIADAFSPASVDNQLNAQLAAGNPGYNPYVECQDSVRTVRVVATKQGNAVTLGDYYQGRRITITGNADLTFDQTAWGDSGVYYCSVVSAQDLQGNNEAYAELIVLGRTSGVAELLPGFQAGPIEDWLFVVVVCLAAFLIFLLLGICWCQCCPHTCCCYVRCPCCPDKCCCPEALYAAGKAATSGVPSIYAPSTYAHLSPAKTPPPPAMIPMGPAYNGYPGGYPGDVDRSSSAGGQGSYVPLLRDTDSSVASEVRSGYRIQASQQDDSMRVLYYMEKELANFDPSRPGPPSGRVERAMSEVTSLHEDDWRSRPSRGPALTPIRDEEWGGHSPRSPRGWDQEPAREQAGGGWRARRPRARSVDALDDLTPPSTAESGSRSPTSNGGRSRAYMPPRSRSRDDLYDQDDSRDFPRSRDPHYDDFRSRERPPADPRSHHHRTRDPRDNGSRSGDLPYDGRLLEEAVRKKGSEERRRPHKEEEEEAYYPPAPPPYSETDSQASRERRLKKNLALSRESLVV
UniProt Q15048: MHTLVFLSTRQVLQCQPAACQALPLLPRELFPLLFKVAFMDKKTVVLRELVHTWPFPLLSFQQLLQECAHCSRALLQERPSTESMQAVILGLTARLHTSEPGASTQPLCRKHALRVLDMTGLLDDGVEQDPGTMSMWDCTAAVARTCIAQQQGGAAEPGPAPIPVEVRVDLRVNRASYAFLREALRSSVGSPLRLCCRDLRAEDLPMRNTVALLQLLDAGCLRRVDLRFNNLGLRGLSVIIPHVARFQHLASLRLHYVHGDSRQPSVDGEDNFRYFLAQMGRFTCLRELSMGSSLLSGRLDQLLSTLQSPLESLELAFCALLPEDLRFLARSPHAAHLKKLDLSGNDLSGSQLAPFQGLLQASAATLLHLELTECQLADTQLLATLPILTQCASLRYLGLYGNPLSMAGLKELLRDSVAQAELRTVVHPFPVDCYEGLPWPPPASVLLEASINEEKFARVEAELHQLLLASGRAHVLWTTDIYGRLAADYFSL
UniProt Q96NW7: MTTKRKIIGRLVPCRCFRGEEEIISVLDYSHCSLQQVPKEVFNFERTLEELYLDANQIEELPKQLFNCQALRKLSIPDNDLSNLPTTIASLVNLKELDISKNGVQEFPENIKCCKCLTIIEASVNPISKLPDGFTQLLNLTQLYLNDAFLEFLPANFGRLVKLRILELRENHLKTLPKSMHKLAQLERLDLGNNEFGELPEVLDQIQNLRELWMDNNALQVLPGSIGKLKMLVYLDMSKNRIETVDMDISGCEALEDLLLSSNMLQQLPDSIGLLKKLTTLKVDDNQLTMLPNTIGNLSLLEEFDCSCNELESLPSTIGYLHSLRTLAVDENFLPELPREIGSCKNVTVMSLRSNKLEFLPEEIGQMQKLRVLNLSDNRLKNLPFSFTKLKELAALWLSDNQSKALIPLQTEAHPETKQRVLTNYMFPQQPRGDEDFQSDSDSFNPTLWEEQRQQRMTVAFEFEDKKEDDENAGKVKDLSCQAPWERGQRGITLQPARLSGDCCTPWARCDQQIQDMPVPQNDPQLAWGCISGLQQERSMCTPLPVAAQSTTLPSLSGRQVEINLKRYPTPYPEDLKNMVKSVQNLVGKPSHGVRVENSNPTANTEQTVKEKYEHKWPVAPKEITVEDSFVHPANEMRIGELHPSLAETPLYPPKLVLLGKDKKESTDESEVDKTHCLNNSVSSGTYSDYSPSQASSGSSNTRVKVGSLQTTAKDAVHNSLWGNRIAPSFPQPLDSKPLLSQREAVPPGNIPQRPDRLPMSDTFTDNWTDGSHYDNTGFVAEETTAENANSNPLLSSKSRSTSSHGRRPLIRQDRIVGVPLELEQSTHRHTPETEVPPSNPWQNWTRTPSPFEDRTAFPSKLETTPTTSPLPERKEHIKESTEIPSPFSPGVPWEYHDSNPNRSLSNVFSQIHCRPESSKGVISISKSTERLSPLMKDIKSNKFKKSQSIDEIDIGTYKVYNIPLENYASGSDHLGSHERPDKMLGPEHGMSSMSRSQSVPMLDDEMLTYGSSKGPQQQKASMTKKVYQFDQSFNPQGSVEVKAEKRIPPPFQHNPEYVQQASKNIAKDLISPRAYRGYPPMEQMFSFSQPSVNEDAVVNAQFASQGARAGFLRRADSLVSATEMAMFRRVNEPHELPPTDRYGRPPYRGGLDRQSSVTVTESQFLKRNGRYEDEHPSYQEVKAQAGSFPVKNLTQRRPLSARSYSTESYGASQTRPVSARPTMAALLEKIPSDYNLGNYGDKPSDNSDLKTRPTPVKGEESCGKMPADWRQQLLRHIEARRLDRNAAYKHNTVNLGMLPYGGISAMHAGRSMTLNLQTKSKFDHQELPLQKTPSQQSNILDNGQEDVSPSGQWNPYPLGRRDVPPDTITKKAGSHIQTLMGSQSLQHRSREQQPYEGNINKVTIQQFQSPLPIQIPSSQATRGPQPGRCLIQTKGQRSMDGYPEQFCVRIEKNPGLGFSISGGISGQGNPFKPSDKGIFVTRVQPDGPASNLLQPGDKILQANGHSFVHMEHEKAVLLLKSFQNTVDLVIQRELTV
UniProt O15243: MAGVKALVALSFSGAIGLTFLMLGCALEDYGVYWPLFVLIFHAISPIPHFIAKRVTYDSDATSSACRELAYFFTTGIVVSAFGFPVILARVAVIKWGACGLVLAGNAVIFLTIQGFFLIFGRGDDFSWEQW
UniProt Q7L5N7: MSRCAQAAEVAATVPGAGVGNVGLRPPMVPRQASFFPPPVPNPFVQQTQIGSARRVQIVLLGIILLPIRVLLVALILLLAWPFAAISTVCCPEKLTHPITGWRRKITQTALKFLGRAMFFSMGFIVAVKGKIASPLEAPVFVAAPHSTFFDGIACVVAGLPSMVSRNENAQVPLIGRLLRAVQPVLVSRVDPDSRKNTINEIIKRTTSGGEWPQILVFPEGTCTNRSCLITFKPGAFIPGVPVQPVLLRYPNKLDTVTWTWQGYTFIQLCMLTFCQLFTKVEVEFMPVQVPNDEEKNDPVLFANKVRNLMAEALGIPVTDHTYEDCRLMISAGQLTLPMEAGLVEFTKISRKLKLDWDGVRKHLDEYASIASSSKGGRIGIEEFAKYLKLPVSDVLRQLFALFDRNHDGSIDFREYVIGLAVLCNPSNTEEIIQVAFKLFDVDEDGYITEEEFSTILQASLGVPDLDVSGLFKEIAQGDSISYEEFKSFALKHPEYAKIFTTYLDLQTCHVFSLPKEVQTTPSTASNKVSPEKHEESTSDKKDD
UniProt Q6ZUX7: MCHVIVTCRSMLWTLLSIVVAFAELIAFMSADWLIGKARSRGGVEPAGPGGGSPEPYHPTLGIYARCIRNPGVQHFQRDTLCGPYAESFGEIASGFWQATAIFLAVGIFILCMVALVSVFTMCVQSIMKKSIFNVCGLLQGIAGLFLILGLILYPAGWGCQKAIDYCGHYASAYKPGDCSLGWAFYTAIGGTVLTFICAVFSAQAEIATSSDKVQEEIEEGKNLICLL
UniProt Q9Y4Y9: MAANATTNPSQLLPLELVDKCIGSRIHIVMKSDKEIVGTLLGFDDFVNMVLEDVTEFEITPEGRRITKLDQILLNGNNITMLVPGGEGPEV
UniProt Q9Y2U8: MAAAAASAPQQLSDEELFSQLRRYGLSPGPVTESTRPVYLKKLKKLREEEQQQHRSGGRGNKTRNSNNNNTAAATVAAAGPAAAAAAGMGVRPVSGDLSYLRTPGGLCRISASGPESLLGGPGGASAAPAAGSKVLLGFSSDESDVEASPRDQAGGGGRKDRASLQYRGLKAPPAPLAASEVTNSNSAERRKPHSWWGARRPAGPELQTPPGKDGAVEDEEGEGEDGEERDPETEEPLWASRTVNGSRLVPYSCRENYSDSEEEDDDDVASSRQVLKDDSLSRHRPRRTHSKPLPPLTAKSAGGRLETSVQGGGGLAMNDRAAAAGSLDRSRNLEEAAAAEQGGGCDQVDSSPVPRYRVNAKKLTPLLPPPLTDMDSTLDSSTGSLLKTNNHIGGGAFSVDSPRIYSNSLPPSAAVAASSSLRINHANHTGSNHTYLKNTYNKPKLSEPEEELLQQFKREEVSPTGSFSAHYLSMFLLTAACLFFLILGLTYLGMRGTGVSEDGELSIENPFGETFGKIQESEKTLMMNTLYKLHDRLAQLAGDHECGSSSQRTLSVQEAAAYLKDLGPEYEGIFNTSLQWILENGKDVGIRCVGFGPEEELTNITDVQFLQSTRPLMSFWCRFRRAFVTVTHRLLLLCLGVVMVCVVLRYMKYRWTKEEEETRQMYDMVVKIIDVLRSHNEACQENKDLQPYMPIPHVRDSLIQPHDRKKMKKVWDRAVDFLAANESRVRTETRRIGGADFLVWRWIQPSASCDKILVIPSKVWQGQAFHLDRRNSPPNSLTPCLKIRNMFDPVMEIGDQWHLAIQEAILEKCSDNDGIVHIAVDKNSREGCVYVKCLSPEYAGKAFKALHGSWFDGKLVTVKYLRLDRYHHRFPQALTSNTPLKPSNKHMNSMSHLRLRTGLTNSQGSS

Experiments:
Experiment in all cases: log2 fold change, soluble protein after heating vs DMSO (PISA); higher = thermal stabilisation; K562 lysate, 10 uM; active = over 0.2 and 3.5 SD of the protein, either way, in both replicates (recomputed)
ibrutinib = compound: C=CC(=O)N1CCC[C@@H](n2nc(-c3ccc(Oc4ccccc4)cc3)c3c(N)ncnc32)C1 [ibrutinib]
Summary of the method: (§1)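 Dounce homogenisation of K562 pellets in PBS pH 7.4 with 1 mM MgCl2 produced a crude extract, used at 1 mg/mL protein. Exposure to 10 μM compound lasted 30 min, and aliquots were then heated for 3 min across 48°C-58°C, pooled and brought to 0.5% NP-40 at 4°C. The supernatant after 21,000xg for 90 min was quantified by TMTpro 16plex LC-MS/MS with channel sums equalised. Duplicate values are given as log-two fold change in thermal stability relative to solvent controls.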

[1] = compound: CC(=O)c1cnc2ccc(-c3cc(Cl)c(O)c(Cl)c3)nc2c1N[C@H]1CC[C@H](CN(C)C)CC1
Summary of the method: as §1

ralimetinib = compound: CC(C)(C)Cn1c(N)nc2ccc(-c3[nH]c(C(C)(C)C)nc3-c3ccc(F)cc3)nc21 [ralimetinib]
Summary of the method: as §1

[2] = compound: CC(C)(O)CC(=O)NCCn1ccc2ncnc(Nc3ccc(Oc4cccc(C(F)(F)F)c4)c(Cl)c3)c21
Summary of the method: as §1

[3] = compound: CC(C)C1=C2N=C(C=C(N2N=C1)NCC3=CC=CC=C3)NCCCCCCN
Summary of the method: as §1

[4] = compound: CC1=C(C(CC(=O)N1)C2=CC=C(C=C2)C(F)(F)F)C(=O)NC3=C(C=C4C(=C3)C=NN4)F
Summary of the method: as §1

[5] = compound: CC1=C(C2=C(C=C1)C(=O)C3=CC=CC=C3N2CCCN)C
Summary of the method: as §1

[6] = compound: CC1=C(C=C(C=C1)NC(=O)C2=CC(=CC=C2)C(C)(C)C#N)NC3=CC4=C(C=C3)N=CN(C4=O)C
Summary of the method: as §1

[7] = compound: CC1=C(C=C(C=C1)NC(=O)C2=CC(=CC=C2)N(C)C)NC(=O)C3=CC=C(C=C3)O
Summary of the method: as §1

[8] = compound: CC1=CC=C(C=C1)SC2=C3C=C(SC3=CN=C2)C(=O)N
Summary of the method: as §1

vemurafenib = compound: CCCS(=O)(=O)Nc1ccc(F)c(C(=O)c2c[nH]c3ncc(-c4ccc(Cl)cc4)cc23)c1F [vemurafenib]
Summary of the method: as §1

[9] = compound: CCCS(=O)(=O)Nc1ccc(F)c(C(=O)c2c[nH]c3ncc(Cl)cc23)c1F
Summary of the method: as §1

barasertib = compound: CCN(CCCOc1ccc2c(Nc3cc(CC(=O)Nc4cccc(F)c4)[nH]n3)ncnc2c1)CCOP(=O)(O)O [barasertib]
Summary of the method: as §1

[10] = compound: CC[C@@H]1C(=O)N(C)c2cnc(Nc3ccc(C(=O)NC4CCN(C)CC4)cc3OC)nc2N1C1CCCC1
Summary of the method: as §1

volasertib = compound: CC[C@@H]1C(=O)N(C)c2cnc(Nc3ccc(C(=O)N[C@H]4CC[C@H](N5CCN(CC6CC6)CC5)CC4)cc3OC)nc2N1C(C)C [volasertib]
Summary of the method: as §1

[11] = compound: CCn1c(C(=O)N(C2CC2)C2CC2)cc2c3c(ncn3C)c(Nc3cc(C)n(C)n3)nc21
Summary of the method: as §1

[12] = compound: CCn1cc(-c2ccnc3[nH]c(-c4cccc(CN(C)C)c4)cc23)c(-c2ccc(NC(=O)N(C)C)cc2)n1
Summary of the method: as §1

[13] = compound: CN1CCC(CNc2ccc3ncc(-c4cccc(OC(F)(F)F)c4)n3n2)CC1
Summary of the method: as §1

saracatinib = compound: CN1CCN(CCOc2cc(OC3CCOCC3)c3c(Nc4c(Cl)ccc5c4OCO5)ncnc3c2)CC1 [saracatinib]
Summary of the method: as §1

sotrastaurin = compound: CN1CCN(c2nc(C3=C(c4c[nH]c5ccccc45)C(=O)NC3=O)c3ccccc3n2)CC1 [sotrastaurin]
Summary of the method: as §1

Measured: log2 fold change

LIN9 isoform 2 (UniProt Q5TKA1)
inactive: ibrutinib -0.095 | [1] -0.034 | ralimetinib -0.031 | [2] 0.013 | [3] 0.097 | [4] -0.032 | [5] 0 | [6] -0.018 | [7] -0.033 | [8] -0.049 | vemurafenib -0.001 | [9] 0.064 | barasertib 0.001 | [10] 0.131 | volasertib -0.002 | [11] 0 | [12] -0.04 | [13] -0.057 | saracatinib 0.044 | sotrastaurin 0.002

LNX2 (UniProt Q8N448)
inactive: ibrutinib 0.069 | [3] -0.187 | [4] -0.003 | [5] -0.065 | vemurafenib -0.061 | barasertib -0.153 | [10] 0.052 | [12] -0.04 | [13] 0.131 | saracatinib -0.177

LMBR1 isoform 3 (UniProt Q8WVP7)
inactive: ibrutinib -0.053 | [6] -0.076 | barasertib 0.038 | [12] -0.08 | [13] 0.094 | sotrastaurin -0.053

LSM6 (UniProt P62312)
inactive: ibrutinib 0.024 | [1] 0.003 | ralimetinib 0.023 | [2] 0.012 | [3] 0.048 | [4] -0.02 | [5] 0.008 | [6] 0.005 | [7] -0.025 | [8] 0.012 | vemurafenib -0.036 | [9] -0.026 | barasertib -0.016 | [10] 0.014 | volasertib 0.043 | [11] -0.021 | [12] 0.017 | [13] 0.019 | saracatinib 0.023 | sotrastaurin -0.018

LEPROTL1 isoform 2 (UniProt O95214)
inactive: ibrutinib 0.011 | [1] -0.019 | ralimetinib 0.083 | [2] 0.102 | [3] -0.033 | [5] -0.015 | [7] 0.01 | [8] 0.121 | vemurafenib -0.052 | [9] -0.069 | barasertib 0.073 | volasertib 0.132 | [11] 0.17 | saracatinib 0.329

Pulled one by one from above, 2 records:
LSM6 (UniProt P62312)
inactive: ibrutinib 0.024 | [1] 0.003 | ralimetinib 0.023 | [2] 0.012 | [3] 0.048 | [4] -0.02 | [5] 0.008 | [6] 0.005 | [7] -0.025 | [8] 0.012 | vemurafenib -0.036 | [9] -0.026 | barasertib -0.016 | [10] 0.014 | volasertib 0.043 | [11] -0.021 | [12] 0.017 | [13] 0.019 | saracatinib 0.023 | sotrastaurin -0.018

LIN9 isoform 2 (UniProt Q5TKA1)
inactive: ibrutinib -0.095 | [1] -0.034 | ralimetinib -0.031 | [2] 0.013 | [3] 0.097 | [4] -0.032 | [5] 0 | [6] -0.018 | [7] -0.033 | [8] -0.049 | vemurafenib -0.001 | [9] 0.064 | barasertib 0.001 | [10] 0.131 | volasertib -0.002 | [11] 0 | [12] -0.04 | [13] -0.057 | saracatinib 0.044 | sotrastaurin 0.002

(list continues)

LDLRAP1 (UniProt Q5SW96)
inactive: ibrutinib 0.125 | ralimetinib 0.01 | [2] 0.031 | [3] -0.056 | [4] -0.026 | [5] 0.047 | [6] -0.012 | [7] 0.066 | vemurafenib 0.04 | barasertib 0.131 | [10] 0.083 | [11] -0.025 | [12] -0.069 | [13] -0.054 | saracatinib 0 | sotrastaurin 0.042

LRG1 (UniProt P02750)
inactive: ibrutinib -0.045 | [3] 0.042 | [6] 0.078 | barasertib 0.128 | [10] -0.047 | [12] 0.006 | [13] -0.023 | sotrastaurin 0.018

LRFN1 (UniProt Q9P244)
inactive: ibrutinib 0.168 | [1] -0.041 | ralimetinib 0.16 | [2] 0.057 | [3] -0.038 | [4] -0.038 | [5] -0.046 | [6] 0.037 | [7] 0.09 | [8] 0.003 | vemurafenib 0.035 | [9] 0.288 | barasertib -0.03 | [10] -0.115 | volasertib -0.18 | [11] 0.018 | saracatinib 0.013 | sotrastaurin 0.057

LIN28A (UniProt Q9H9Z2)
inactive: ibrutinib 0.101 | [3] 0.129 | [4] -0.045 | barasertib 0.026 | [12] 0.104 | [13] 0.103

LRCH1 isoform 3 (UniProt Q9Y2L9)
inactive: ibrutinib 0.154 | [1] -0.014 | ralimetinib 0.198 | [2] -0.224 | [4] 0.009 | [5] 0.048 | [7] -0.049 | [8] 0.111 | [9] 0.054 | barasertib 0.098 | volasertib -0.017 | [11] 0.42 | saracatinib 0.014

LSM12 (UniProt Q3MHD2)
inactive: ibrutinib -0.005 | [1] 0.014 | ralimetinib -0.032 | [2] -0.008 | [3] -0.027 | [4] -0.004 | [5] -0.038 | [6] -0.036 | [7] -0.004 | [8] -0.004 | vemurafenib 0.023 | [9] 0.02 | barasertib -0.002 | [10] 0.059 | volasertib -0.008 | [11] -0.019 | [12] -0.021 | [13] -0.013 | saracatinib 0.008 | sotrastaurin 0.036

LSM10 (UniProt Q969L4)
inactive: ibrutinib 0.08 | [1] 0.043 | ralimetinib 0.083 | [2] 0.029 | [3] -0.043 | [5] -0.06 | [7] 0.028 | [8] -0.002 | [9] -0.086 | barasertib 0.018 | volasertib 0 | [11] -0.079 | [12] -0.064 | [13] -0.009 | saracatinib -0.012

LRBA (UniProt P50851)
inactive: ibrutinib 0 | [1] 0.004 | ralimetinib 0.02 | [2] -0.024 | [3] -0.009 | [4] -0.003 | [5] 0.005 | [6] 0.016 | [7] 0.012 | [8] 0.008 | vemurafenib -0.001 | [9] 0.003 | barasertib 0.021 | [10] -0.024 | volasertib -0.021 | [11] -0.009 | [12] -0.05 | [13] 0.033 | saracatinib 0.014 | sotrastaurin -0.004

LSR (UniProt Q86X29)
inactive: ibrutinib 0.038 | [1] -0.012 | ralimetinib 0.026 | [2] 0.062 | [3] 0.003 | [4] 0.036 | [5] 0.039 | [6] 0.029 | [7] -0.031 | [8] 0.021 | vemurafenib -0.026 | [9] 0.003 | barasertib -0.022 | [10] -0.038 | volasertib -0.043 | [11] 0.091 | [12] -0.027 | [13] 0.037 | saracatinib 0.033 | sotrastaurin 0.04

LRRC14 (UniProt Q15048)
inactive: ibrutinib 0.071 | [1] -0.038 | ralimetinib 0.007 | [2] -0.049 | [3] -0.09 | [4] 0.01 | [5] -0.148 | [6] 0.031 | [7] 0.044 | [8] 0.1 | vemurafenib 0.025 | [9] 0.085 | barasertib -0.033 | [10] -0.143 | volasertib -0.038 | [11] 0.088 | [12] -0.079 | [13] 0.083 | saracatinib 0.071 | sotrastaurin 0.028

LRRC7 (UniProt Q96NW7)
inactive: ibrutinib -0.081 | [1] 0.026 | ralimetinib -0.115 | [2] -0.073 | [5] 0.041 | [6] -0.062 | [7] 0.09 | [8] 0.086 | vemurafenib 0.112 | [9] -0.024 | barasertib 0.062 | [10] 0.056 | volasertib 0.047 | [11] -0.008 | [12] -0.033 | [13] -0.043 | saracatinib -0.044 | sotrastaurin -0.012

LEPROT (UniProt O15243)
inactive: ibrutinib 0.005 | [1] -0.273 | ralimetinib -0.034 | [2] 0.054 | [3] 0.267 | [6] 0.181 | [7] 0.016 | [8] 0 | [9] 0.112 | barasertib 0.042 | [10] 0.144 | volasertib 0.102 | [11] -0.086 | [12] -0.043 | [13] -0.02 | sotrastaurin -0.009

LPCAT2 (UniProt Q7L5N7)
inactive: ibrutinib 0.139 | [4] 0.136 | [5] 0.148 | [6] 0.002 | vemurafenib -0.081 | barasertib 0.024 | [10] 0 | saracatinib 0.138 | sotrastaurin 0.022

LDLR (UniProt P01130)
inactive: ibrutinib 0.043 | [1] -0.012 | ralimetinib -0.003 | [2] -0.085 | [3] -0.133 | [4] -0.276 | [5] 0.035 | [6] 0.006 | [7] 0.014 | [8] 0 | vemurafenib -0.015 | [9] 0.034 | barasertib 0.122 | [10] 0.104 | volasertib -0.115 | [11] 0.121 | [12] -0.019 | [13] 0.094 | saracatinib 0.007 | sotrastaurin 0.051

LDHC (UniProt P07864)
inactive: ibrutinib -0.125 | [1] -0.021 | ralimetinib 0.053 | [2] 0.055 | [3] 0.001 | [4] -0.058 | [5] 0 | [7] 0.076 | [8] 0.08 | vemurafenib 0.026 | [9] -0.013 | barasertib 0.019 | [10] -0.016 | volasertib -0.052 | [11] 0.009 | saracatinib -0.004

LHFPL2 (UniProt Q6ZUX7)
inactive: ibrutinib 0.185 | [6] 0.074 | barasertib -0.073 | sotrastaurin -0.008

LSM5 (UniProt Q9Y4Y9)
inactive: ibrutinib -0.098 | [1] 0.014 | ralimetinib 0.048 | [2] 0.018 | [3] 0.068 | [5] -0.009 | [6] -0.062 | [7] 0.144 | [8] -0.238 | vemurafenib 0.13 | [9] 0.017 | barasertib 0.019 | [10] 0.19 | volasertib -0.062 | [11] 0.037 | [12] 0.146 | [13] 0.027 | saracatinib 0.11 | sotrastaurin 0.076

LEMD3 (UniProt Q9Y2U8)
inactive: ibrutinib 0.154 | [1] -0.133 | ralimetinib 0.18 | [2] -0.018 | [3] -0.018 | [4] -0.034 | [6] 0.069 | [7] -0.251 | [8] 0 | [9] 0.065 | barasertib -0.125 | volasertib -0.024 | [11] 0.081 | [12] 0.04 | [13] 0.005 | sotrastaurin -0.027

LDHA (UniProt F5GZQ4)
inactive: ibrutinib 0.157 | [1] -0.063 | ralimetinib 0.102 | [2] 0.012 | [4] -0.043 | [7] 0.057 | [8] 0.053 | [9] 0.035 | barasertib 0.293 | volasertib -0.052 | [11] -0.214 | [12] 0.548 | [13] 0.045
